Test results taken from article PMC4027176, “Modulating TRAP-mediated transcription termination by AT during transcription of the leader region of the Bacillus subtilis trp operon” (Nucleic Acids Research, 2014).
Substitutions are numbered along the chain they refer to. In names and notes the source's numbering stands. These are yes or no findings as the source states them, for the method shown. Some results given as binding are weak or reduced against the parent protein; the word gives no strength. For part of these data: Sequences can lack the tags named with a protein.

How the values were obtained:
[1] = target: T1, His-tagged N20C (Asn20 replaced with Cys) TRAP (B. subtilis) (UniProt P19466); experiment: co-IP; samples of N20C TRAP and/or D7C AT with or without BMOE precipitated with antibodies against B. subtilis TRAP; SDS PAGE and immunoblot with polyclonal antibodies against B. subtilis AT; both purified
T1 sequence: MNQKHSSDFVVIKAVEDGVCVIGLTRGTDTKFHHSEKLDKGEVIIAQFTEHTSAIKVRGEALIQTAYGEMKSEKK

[2] = target: T1, His-tagged N20C (Asn20 replaced with Cys) TRAP (B. subtilis); experiment: cross-linking; BMOE (0.04 mM, 8 Å sulfhydryl cross-linker); N20C TRAP 0.02 mM and/or D7C AT 0.08 mM; 1 mM tryptophan; PBS pH 7.2, 0.5 mM EDTA; 37°C 1 h; 15% SDS gel, Coomassie; both purified
[3] = target: T2, (N20C)1(WT)10 TRAP hetero-11mer (B. subtilis) (UniProt P19466); experiment: cross-linking; (N20C)1(WT)10 TRAP hetero-11mer with 5-fold excess D7C AT, BMOE in cross-linking buffer; complex purified on successive immunoaffinity columns against B. subtilis TRAP and B. subtilis AT; both purified
T2 sequence 1: T1 sequence with C20N
T2 sequence 2: T1 sequence

Measured: binding

B1: AT containing a Cys substitution at residue 7 (D7C AT) (natural protein, B. subtilis, UniProt O31466 1-53, looked up)
chain: MVIATDCLEVACPKCERAGEIEGTPCPACSGKGVILTAQGYTLLDFIQKHLNK
notes: Anti-TRAP (AT) of Bacillus subtilis with Asp7 replaced by Cys; source: purified as described by Chen and Gollnick (19)
binds: [1] | [2] | [3]
